Data published in article PMC5651819, “AtSPX1 affects the AtPHR1–DNA-binding equilibrium by binding monomeric AtPHR1 in solution” (Biochemical Journal, 2017).
Construct, isoform or probe ends are uncertain for at least one entry. A negative result means that nothing was seen under these conditions. At least one verdict was read from the data and is not stated in words by the source. Weaker means in comparison with the reference protein, sequence or condition of that experiment.

Protein sequences, listed by entry. Tags and fused reporters are not part of them. Residues count along the entry.
UniProt Q94CL7, 208-362: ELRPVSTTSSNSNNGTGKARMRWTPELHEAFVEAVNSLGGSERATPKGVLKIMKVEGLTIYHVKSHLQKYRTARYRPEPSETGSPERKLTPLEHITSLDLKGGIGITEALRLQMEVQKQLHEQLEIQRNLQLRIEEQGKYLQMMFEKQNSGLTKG

Target: MBP-AtdPHR1 (Arabidopsis thaliana) (UniProt Q94CL7)
Assay: SPR
Conditions: SPR (Biacore 3000, SA chip, ~500 RU DNA): 10 mM HEPES pH 7.5, 200 mM NaCl, 0.01% Surfactant P-20, 25 C, 40 ul/min, with or without Pi/InsP6, recombinant protein, residues 208-362, protein details: N-terminal MBP (pMAL-c2x)

Row | Sequence | binding result (0.31-80 nM protein, data not shown, label: biotin (implied by SA capture)) | binding result (80 nM pre-bound, then GST-AtSPX1 with 100 uM InsP6, not displaced, label: 5'-biotin on strand 1) | binding result (80 nM, pre-mixed with GST-AtSPX1, 100 uM InsP6, signal not lowered, label: 5'-biotin on strand 1) | binding result (80 nM, pre-mixed with ~1000 nM GST-AtSPX1, 500 uM InsP6, smaller loss than 1x P1BS, label: 5'-biotin on strand 1) | binding result (80 nM, pre-mixed with ~1000 nM GST-AtSPX1, 5 mM Pi, smaller loss than 1x P1BS, label: 5'-biotin on strand 1)
1 | CCGGCAGGAGACGTCTAGACGTCTCCGGCAGG (double strand) [met-box control probe] | no binding | – | – | – | –
2 | CAGAGAAAAAAGGATATTCTAATTAGAAACCTTAAGAATATTCTTTTTAATCCC (double strand) [2x P1BS probe] | – | binds | binds | binds more weakly | binds more weakly
